From PubChem BioAssay AID276 (DTP/NCI, 2004) come the findings set out here.

The test system of the experiment is B6C3F1 mice, Lewis lung carcinoma iv, survival T/C. Description: NCI In Vivo Anticancer Drug Screen. Data for tumor model Lewis Lung Carcinoma (intravenous) in B6C3F1 mice. The settings on record: T/C endpoint: median survival time, schedule: Q01DX009 (ip), higher T/C = longer survival. Put shortly:
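Read-out is survival, expressed as the treated-group measurement over the vehicle control-group measurement. Animals bore a transplantable tumor and were given compound.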

The mark [1] stands for this setting: dose: 100.0 mg/kg/injection, vehicle: Klucel (hydroxypropylcellulose) (HPC).
Setting [2] is: dose: 200.0 mg/kg/injection, vehicle: Klucel (hydroxypropylcellulose) (HPC).
[3] abbreviates: dose: 200.0 mg/kg/injection, vehicle: saline with Tween-80.
Where [4] appears, read: dose: 400.0 mg/kg/injection, vehicle: saline with Tween-80.
[5] abbreviates: dose: 100.0 mg/kg/injection, vehicle: saline with Tween-80.
Where [6] appears, read: dose: 200.0 mg/kg/injection, vehicle: saline.
Setting [7] is: dose: 400.0 mg/kg/injection, vehicle: saline.
The mark [8] stands for this setting: dose: 50.0 mg/kg/injection, vehicle: water.
Setting [9] is: dose: 400.0 mg/kg/injection, vehicle: Klucel (hydroxypropylcellulose) (HPC).
Setting [10] is: dose: 800.0 mg/kg/injection, vehicle: Klucel (hydroxypropylcellulose) (HPC).
Setting [11] is: dose: 50.0 mg/kg/injection, vehicle: saline.
The mark [12] stands for this setting: dose: 400.0 mg/kg/injection, vehicle: suspension in saline.

Structures are written as SMILES. The list does not hold the whole screen: it is rich in T/C values a quarter to a half above the control, in often repeated tests (any T/C) and in doses without a T/C. Further doses and runs are listed elsewhere. T/C: endpoint of the treated group in % of that of the vehicle group. Some doses have a count of surviving animals in place of a T/C: the source holds a T/C of zero for them, seemingly a mark for toxic or unscored doses. Some doses without a T/C left all or most animals alive at the check, yet need not have been tolerated: survival well below the control is almost never listed, so the zero probably covers shortened survival too. Survivors were counted at the toxicity check, usually on the fifth day, unless a day is given; later deaths do not show. Schedule codes are those of the source, read here as Q, the interval in days (D) or hours (H), X, the number of doses. Where survival is the endpoint, the PubChem record calls one and a half times the control and up active, and a quarter to a half above the control has no call in these data; cut-offs in other NCI protocols can differ. Some T/C values carry the count of animals alive at the toxicity check (mostly the fifth day); where none is given, no animal had died by that day. Some entries were tested several times; the values are given in rising order. Brackets with × stand for listed records that agree.

Turning to `COc1ccc2[nH]c3ccc4cc[n+](CCN5CCC(C6CCN(CC[n+]7ccc8ccc9[nH]c%10ccc(OC)cc%10c9c8c7)CC6)CC5)cc4c3c2c1`, the T/C was 125 % of control (dose: 25.0 mg/kg/injection, vehicle: Klucel (hydroxypropylcellulose) (HPC)); 125 and 146 % of control [9 of 10 alive] (dose: 50.0 mg/kg/injection, vehicle: Klucel (hydroxypropylcellulose) (HPC)). The survivor count is on record as 0 of 10 under setting [1] and 0 of 10 under setting [2].
As to `O=C(CCCCCCC(=O)ON1C(=O)CCC1=O)ON1C(=O)CCC1=O`, the survivor count is, setting by setting: under setting [3], 10 of 10; under setting [4], 6 of 10.
Turning to `CCCCCCCCCCCCCC#CC(=O)O`, under setting [5], the survivor count is reported as 7 of 10.
Regarding `CC(C)NCC(O)COc1ccc(O)c(O)c1` (stereo not given), the survivor count is, setting by setting: under setting [6], 0 of 10; under setting [7], 0 of 10.
For `N=c1ccc2nc3ccc(N)cc3sc-2c1`, the survivor count by setting is: under setting [8], 4 of 10; (dose: 100.0 mg/kg/injection, vehicle: water) 0 of 10.
Take `CCN(CC)Cc1cc2[nH]c3c4ccc(Cl)cc4ncc3c2cc1OC`: the survivor count under setting [5] is 2 of 10.
`C#C[C@]1(O)CC[C@H]2[C@@H]3CCc4cc(O)ccc4[C@H]3CC[C@@]21C`: the T/C under setting [1] is 129 % of control, the T/C under setting [2] is 129 % of control and the T/C under setting [9] is 139 % of control. Moreover, the survivor count under setting [9] is 5 of 10 and the survivor count under setting [10] was 0 of 10.
As to `O=S(=O)(SC(S(=O)(=O)c1ccccc1)S(=O)(=O)c1ccccc1)c1ccccc1`, the survivor count under setting [10] is on record as 5 of 10.
For the compound `CCCC(=O)O`, under setting [7], the survivor count is listed as 0 of 10.
For the compound `Cn1c2ccccc2c2ccc3c(c21)C(=O)C=CC3=O`, the survivor count runs as follows: (dose: 25.0 mg/kg/injection, vehicle: saline with Tween-80) 8 of 10; (dose: 50.0 mg/kg/injection, vehicle: saline with Tween-80) 8 of 10; under setting [5], 1 of 10; under setting [3], 0 of 10.
For the compound `Nc1n[n+](-c2ccccc2)no1`, the survivor count under setting [8] is 1 of 10.
With `CN(C)CCC(=O)C(=Cc1ccc(O)cc1)C(=O)CCN(C)C`, the survivor count under setting [7] is recorded as 0 of 6.
For `OCCN1CCN(CC/C=C2/c3ccccc3Sc3ccc(Cl)cc32)CC1`, the survivor count under setting [11] is 4 of 10.
For the compound `O=C(O)C1CC(c2ccccc2)=NN1c1ccccc1` (stereo not given), the survivor count (dose: 400.0 mg/kg/injection, vehicle: water) was 0 of 10.
With `O=C(Nc1ccccc1)c1c(O)[nH]c(=S)[nH]c1=O`, the T/C under setting [5] is 126 % of control [9 of 10 alive]. Further, the survivor count under setting [3] was 1 of 10.
With `Cn1cnc([N+](=O)[O-])c1Sc1ncn[nH]1`, the survivor count is, setting by setting: under setting [6], 6 of 10; under setting [7], 4 of 10.
For the compound `O=c1[nH]cccc1O`, the survivor count by setting is: (dose: 128.0 mg/kg/injection, vehicle: saline with Tween-80) 10 of 10; (dose: 512.0 mg/kg/injection, vehicle: saline with Tween-80) 6 of 10.
Take `CCCCCn1c(C)cc(/C=C\c2ccc3cc(C)ccc3[n+]2C)c1C`: the survivor count (dose: 600.0 micrograms/kg/injection, vehicle: Klucel (hydroxypropylcellulose) (HPC)) was 5 of 10 and the survivor count (dose: 1200.0 micrograms/kg/injection, vehicle: Klucel (hydroxypropylcellulose) (HPC)) is 0 of 10.
Take `COc1cc2c3c(cccc3c1)C(=O)N(CCN(C)C)C2=O`: where the note is “dose: 160.0 mg/kg/injection, vehicle: saline with Tween-80”, the survivor count is 5 of 10.
`CCN(CC)CCNc1ccc(C)c2sc3ccc(O)cc3c(=O)c12`: the survivor count is, setting by setting: under setting [5], 10 of 10; under setting [3], 6 of 10.
For `CCCCCCCCCCCCCCCCCC(=O)Nc1ccn(C2OC(CO)C(O)C2O)c(=O)n1` (stereo not given), the T/C (dose: 25.0 mg/kg/injection, vehicle: suspension in saline) is 129 % of control. The survivor count reads like this: (dose: 100.0 mg/kg/injection, vehicle: suspension in saline) 10 of 10; (dose: 200.0 mg/kg/injection, vehicle: suspension in saline) 10 of 10; under setting [12], 10 of 10.
For `NC(=O)c1csc(C2OC(CO)C(O)C2O)n1` (stereo not given), the T/C reads like this: (dose: 25.0 mg/kg/injection, vehicle: saline) 174, 284, 291, 324 % of control (2×); under setting [11], 233, 291, 324, 324 % of control [9 of 10 alive]; (dose: 100.0 mg/kg/injection, vehicle: saline) 291 (2×) and 324 % of control (2×); under setting [6], 291 (2×) and 324 % of control (2×); under setting [7], 291 (2×) and 324 % of control (2×); (dose: 800.0 mg/kg/injection, vehicle: saline) 97 [8 of 10 alive], 115, 291 % of control (2×). The survivor count (dose: 800.0 mg/kg/injection, vehicle: water) was 10 of 10.
Consider `CC(C)NC(=O)N(CCCCBr)N=O`, for which the survivor count is, setting by setting: under setting [1], 10 of 10; under setting [2], 10 of 10.
Take `COc1ccc(/C=C/C(=O)c2cc(C(=O)O)c(OC)cc2OC)cc1OC`: under setting [12], the survivor count was 7 of 10.
With `C[CH2][Ge]([CH2]C)[CH2]C.C[CH2][Ge]([CH2]C)[CH2]C.C[CH2][Ge]([CH2]C)[O][Ge]([CH2]C)[CH2]C`, the survivor count under setting [3] was 0 of 10.
Consider `Cn1cc(C2NC(=O)c3ccccc3N2)c2ccccc21` (stereo not given), for which, under setting [9], the survivor count was 6 of 10.
For `S=C(Nc1ccc(Cl)c(Cl)c1)N1c2ccccc2-n2cccc2C1c1cccnc1` (stereo not given), under setting [9], the survivor count is 1 of 10.
As for `CC1(C)CC2(C)OC2C2(C1)N=NC(=Nc1ccccc1)O2` (stereo not given), the survivor count is reported as 0 of 10 under setting [3] and 0 of 8 under setting [4].
Take `O=c1oc2c(O)c(O)cc3c(=O)oc4c(O)c(O)cc1c4c23`: under setting [2], the T/C was 128 % of control. Further, the survivor count under setting [9] is on record as 10 of 10.
Consider `NC(=O)c1ccc(N)nc1`, for which the T/C (dose: 2.0 mg/kg/injection, vehicle: saline) was 145 % of control. Where the note is “dose: 4.0 mg/kg/injection, vehicle: saline”, the survivor count is 10 of 10.
As for `CCCC(=O)OCC1OC(n2cnc3c(=S)nc[nH]c32)C(OC(=O)CCC)C1OC(=O)CCC` (stereo not given), the survivor count under setting [5] was 10 of 10.
Regarding `COc1cccc2c1C(=O)c1c(O)c3c(c(O)c1C2=O)C[C@@](O)(C(=O)CO)C[C@@H]3OC1CC(OC(C)=O)C(OC(C)=O)C(C)O1` (stereo not given in full), the T/C runs as follows: (dose: 6.0 mg/kg/injection, vehicle: water) 133 % of control; (dose: 6.25 mg/kg/injection, vehicle: distilled water + Tween-80) 133 % of control [9 of 10 alive]; (dose: 6.25 mg/kg/injection, vehicle: water) 145 % of control. Further, the survivor count (dose: 12.5 mg/kg/injection, vehicle: water) was 9 of 10; the survivor count (dose: 24.0 mg/kg/injection, vehicle: water) is 10 of 10; the survivor count (dose: 25.0 mg/kg/injection, vehicle: distilled water + Tween-80) is given as 10 of 10; the survivor count (dose: 25.0 mg/kg/injection, vehicle: water) is recorded as 10 of 10.
Take `COc1ccc(C[C@H](N)C(=O)NC2C(CO)OC(n3cnc4c(N(C)C)ncnc43)C2O)cc1` (stereo not given in full): where the note is “dose: 160.0 mg/kg/injection, vehicle: saline”, the survivor count is 8 of 10.
